Laboratory results: US20060104951A1, “Akt and regulation of RA synovial fibroblast apoptosis” (priority 2004, published 2006)
For at least one compound, name, drawing or mass did not settle the structure.

Experiments:
[1] = system: Akt; conditions: Cell: Prostate cancer; cited from earlier work
[2] = system: phosphorylated Akt; experiment: Western blot of phosphorylated-Akt in RASF lysates; conditions: TNF-α 10 ng/ml plus wortmannin 50 nM
[3] = system: rheumatoid arthritis synovial fibroblasts (RASF); experiment: ATPlite-M cytotoxicity assay in RASF
[4] = system: Akt; experiment: Akt kinase assay (immunoprecipitated Akt, GSK-3 fusion protein substrate) in RASF line RA68; assay type: cell-based, human; conditions: RASF RA68, TNF-α 10 ng/ml, pretreatment with wortmannin 50 nM

Cc1ccc(-c2cc(C(F)(F)F)nn2-c2ccc(S(N)(=O)=O)cc2)cc1 [Celecoxib, celecoxib]
Action [1]: Block Akt

COC[C@H]1OC(=O)c2coc3c2[C@@]1(C)C1=C(C3=O)[C@@H]2CCC(=O)[C@@]2(C)C[C@H]1OC(C)=O [wortmannin]
TNF-α induced increase in phosphorylated Akt (Western blot) [2]: inhibited
apoptosis (ATPlite) ([3]; RASF, TNF-α plus wortmannin 50 nM): extensive apoptosis
apoptosis of RASF ([3]; wortmannin and a constant dose of TNF-α, within 24 hours): greater than half
TNF-α induced increase in Akt-kinase activity [4]: blocked
